Results from paper PMC5063574.
These are yes or no findings as the source states them, for the method shown. Binding seen in cells or lysates may run through a third protein. Some entries that bind do so weakly or less than the wild type.

The chains behind the UniProt entries cited, without tags or fusion partners.
UniProt P26358: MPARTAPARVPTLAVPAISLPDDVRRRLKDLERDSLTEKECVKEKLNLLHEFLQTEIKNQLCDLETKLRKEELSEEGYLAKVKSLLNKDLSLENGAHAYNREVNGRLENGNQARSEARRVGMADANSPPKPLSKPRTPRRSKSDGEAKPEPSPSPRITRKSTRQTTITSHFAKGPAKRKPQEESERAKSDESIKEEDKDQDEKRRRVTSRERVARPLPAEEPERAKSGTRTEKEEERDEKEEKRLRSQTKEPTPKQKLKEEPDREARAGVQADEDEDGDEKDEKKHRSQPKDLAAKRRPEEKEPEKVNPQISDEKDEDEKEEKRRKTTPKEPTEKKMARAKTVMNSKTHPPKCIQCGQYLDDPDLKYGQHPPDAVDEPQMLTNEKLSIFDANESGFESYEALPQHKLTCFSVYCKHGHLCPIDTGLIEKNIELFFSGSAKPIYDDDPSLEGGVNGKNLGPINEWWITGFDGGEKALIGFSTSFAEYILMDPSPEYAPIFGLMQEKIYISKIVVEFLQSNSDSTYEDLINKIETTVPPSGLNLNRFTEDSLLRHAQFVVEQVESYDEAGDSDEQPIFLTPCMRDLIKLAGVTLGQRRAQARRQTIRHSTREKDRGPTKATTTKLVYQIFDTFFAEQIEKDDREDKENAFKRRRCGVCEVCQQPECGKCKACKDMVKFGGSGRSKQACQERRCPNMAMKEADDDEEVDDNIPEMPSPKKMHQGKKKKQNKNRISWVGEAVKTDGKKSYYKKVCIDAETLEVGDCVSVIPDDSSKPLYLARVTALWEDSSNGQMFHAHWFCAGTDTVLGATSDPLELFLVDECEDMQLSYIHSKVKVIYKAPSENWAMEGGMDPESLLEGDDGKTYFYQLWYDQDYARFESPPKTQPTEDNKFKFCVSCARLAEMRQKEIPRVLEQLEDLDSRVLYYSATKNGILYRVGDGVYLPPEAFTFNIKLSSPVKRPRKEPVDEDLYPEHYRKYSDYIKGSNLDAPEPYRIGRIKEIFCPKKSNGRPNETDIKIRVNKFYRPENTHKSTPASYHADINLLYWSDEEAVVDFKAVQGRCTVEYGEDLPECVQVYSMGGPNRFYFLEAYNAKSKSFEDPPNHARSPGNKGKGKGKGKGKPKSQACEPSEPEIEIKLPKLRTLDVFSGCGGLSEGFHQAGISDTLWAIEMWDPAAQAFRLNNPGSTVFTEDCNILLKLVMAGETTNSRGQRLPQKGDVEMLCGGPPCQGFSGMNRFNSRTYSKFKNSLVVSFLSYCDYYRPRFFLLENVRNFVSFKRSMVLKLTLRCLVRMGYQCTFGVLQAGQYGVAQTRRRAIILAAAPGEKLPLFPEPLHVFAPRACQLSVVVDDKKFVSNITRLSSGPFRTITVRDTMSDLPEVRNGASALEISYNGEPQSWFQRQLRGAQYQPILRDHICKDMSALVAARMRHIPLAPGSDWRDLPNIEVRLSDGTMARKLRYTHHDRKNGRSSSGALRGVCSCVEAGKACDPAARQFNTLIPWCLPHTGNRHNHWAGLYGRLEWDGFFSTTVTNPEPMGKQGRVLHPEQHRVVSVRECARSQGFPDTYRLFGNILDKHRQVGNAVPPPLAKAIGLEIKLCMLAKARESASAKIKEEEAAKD
UniProt Q9QR71: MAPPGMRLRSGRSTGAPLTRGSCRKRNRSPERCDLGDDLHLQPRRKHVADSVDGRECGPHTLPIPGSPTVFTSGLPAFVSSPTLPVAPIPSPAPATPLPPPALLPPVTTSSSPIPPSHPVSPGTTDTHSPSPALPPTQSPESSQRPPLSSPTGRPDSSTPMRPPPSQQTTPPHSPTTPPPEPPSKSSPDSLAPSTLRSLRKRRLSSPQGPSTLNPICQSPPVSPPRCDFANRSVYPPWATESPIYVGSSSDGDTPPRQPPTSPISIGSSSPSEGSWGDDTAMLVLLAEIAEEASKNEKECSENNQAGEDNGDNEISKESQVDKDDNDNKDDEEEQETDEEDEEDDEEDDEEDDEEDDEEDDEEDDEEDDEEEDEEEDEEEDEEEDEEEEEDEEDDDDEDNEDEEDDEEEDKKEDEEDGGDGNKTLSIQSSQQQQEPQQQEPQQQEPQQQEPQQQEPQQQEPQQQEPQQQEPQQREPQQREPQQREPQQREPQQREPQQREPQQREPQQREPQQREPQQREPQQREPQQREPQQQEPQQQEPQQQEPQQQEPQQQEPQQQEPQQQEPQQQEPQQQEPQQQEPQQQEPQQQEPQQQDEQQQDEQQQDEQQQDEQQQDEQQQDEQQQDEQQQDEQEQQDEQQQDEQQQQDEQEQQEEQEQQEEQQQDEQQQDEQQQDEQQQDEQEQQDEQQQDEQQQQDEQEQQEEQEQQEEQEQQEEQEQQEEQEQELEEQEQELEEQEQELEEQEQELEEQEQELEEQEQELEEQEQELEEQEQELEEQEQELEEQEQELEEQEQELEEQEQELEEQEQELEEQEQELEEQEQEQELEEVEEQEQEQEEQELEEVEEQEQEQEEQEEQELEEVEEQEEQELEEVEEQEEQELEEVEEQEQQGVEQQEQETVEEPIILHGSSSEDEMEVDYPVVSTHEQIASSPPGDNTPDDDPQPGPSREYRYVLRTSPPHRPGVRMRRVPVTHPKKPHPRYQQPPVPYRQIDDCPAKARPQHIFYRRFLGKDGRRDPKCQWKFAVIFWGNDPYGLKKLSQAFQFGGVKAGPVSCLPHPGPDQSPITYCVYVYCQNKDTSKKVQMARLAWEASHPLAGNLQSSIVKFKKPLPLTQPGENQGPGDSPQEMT

Biological target: DNA (cytosine-5)-methyltransferase 1 (DNMT1) (human (endogenous in iSLK-BAC16)) (UniProt P26358)
Test: co-IP; endogenous proteins in extracts of iSLK-BAC16 cells treated with 0 or 72.5 uM genipin for 48 h; RIPA lysis buffer; IP with 2 ug anti-DNMT1, anti-DNMT3a or anti-KSHV ORF73 antibody at 4°C overnight, protein-A/G-Sepharose beads, three washes with lysis buffer; western blot

In the case of “KSHV latency-associated nuclear antigen (LANA) (from UniProt Q9QR71 1-1129)”, the binding is reported as “binds”.
